The results in this text go back to publication PMC10792152.

By UniProt entry, the sequences of proteins in these tests, tags left out.
UniProt P08515, whole entry: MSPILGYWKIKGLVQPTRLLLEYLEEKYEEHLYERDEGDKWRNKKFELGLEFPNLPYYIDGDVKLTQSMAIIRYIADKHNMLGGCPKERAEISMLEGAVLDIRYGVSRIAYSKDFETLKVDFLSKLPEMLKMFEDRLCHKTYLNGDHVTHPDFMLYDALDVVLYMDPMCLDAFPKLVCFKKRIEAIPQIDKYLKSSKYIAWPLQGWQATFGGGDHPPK

Data set [1] relates to GST-OsPIL11 (Oryza sativa L.). The experiment in a line: EMSA. The conditions noted are these: 10- and 20-fold unlabeled probe reduced the shift (Fig. 5e); Chemiluminescent EMSA kit (Beyotime GS009), biotin probes, 6% non-denaturing polyacrylamide gel; pH and temperature not stated; recombinant protein; protein details: GST (pGEX-4T-1), N-terminal. For orientation: A gel shift assay detects complexes by their altered migration in electrophoresis.

A further data set has as its target GST (UniProt P08515). Briefly: EMSA. Conditions: Chemiluminescent EMSA kit (Beyotime GS009), biotin probes, 6% non-denaturing polyacrylamide gel; pH and temperature not stated; recombinant protein; protein details: GST.

The exact form of at least one protein or probe is not confirmed. For some assays here: Negatives hold for the conditions tested.

Take “GCCACGCTTTCCACGCACATGTAGAAGACCATGCAGGCAACA (double strand) [YGL3 promoter PBE-box-1 probe]”: the binding result is “binds” in data set [1] and “no binding” in the data set with GST.
